PubChem BioAssay AID493246 | Drosophila RNAi Screening Center, 2011

Aim: 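Genes fly cells need to grow and stay alive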 (primary screen)
System: Drosophila Kc and S2R+ cells
Knock-down reagent: long dsRNA against Drosophila genes
Measured: 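Raw, unnormalised count of remaining cells in each well; per-plate z-scores of cell number underlie the calls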
Direction: Kc cell number and S2R+ cell number: higher = more cells remaining
Active means: 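Active when the per-plate z-score of cell number is 3 or more in the direction of fewer cells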
The deposit covers about 21,000 reagents; this is a random part of those that have a named target and a result. Over the whole deposit, 429 (2%) were called active. 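Values are raw and not normalised between plates; calls rest on per-plate z-scores that were not deposited.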 A number with no mark means an inactive call. A plus sign joins genes that one reagent is predicted to hit. The record does not give: the amount of reagent, the time to read-out.

Against IntS6 [SID104198073], the entry reads Kc cell number, rep 1 = 6.23e5; S2R+ cell number, rep 1 = 8.11e5.
For Usp1 [SID104193947], the values are Kc cell number, rep 1 = 5.56e5; S2R+ cell number, rep 1 = 7.99e5.
For CG15747 [SID104199505], the values are Kc cell number, rep 1 = 3.83e5; S2R+ cell number, rep 1 = 6.98e5.
For Tmem43 [SID104190756], the entry reads Kc cell number, rep 1 = 1.71e6; Kc cell number, rep 2 = 1.84e6; S2R+ cell number, rep 1 = 1.13e6; S2R+ cell number, rep 2 = 1.19e6.
For CG15386 + CG42371 [SID104180192], the entry reads Kc cell number, rep 1 = 1.51e6; Kc cell number, rep 2 = 1.62e6; S2R+ cell number, rep 1 = 1.04e6; S2R+ cell number, rep 2 = 1.17e6.
After knock-down of GstO2 [SID104190483], the record shows Kc cell number, rep 1 = 1.27e6; Kc cell number, rep 2 = 1.37e6; S2R+ cell number, rep 1 = 1.16e6; S2R+ cell number, rep 2 = 1.06e6.
Against BHD [SID104190809], the values are Kc cell number, rep 1 = 1.46e6; Kc cell number, rep 2 = 1.54e6; S2R+ cell number, rep 1 = 1.36e6; S2R+ cell number, rep 2 = 1.21e6.
Knock-down of Cyp6d4 [SID104196425] came out at: Kc cell number, rep 1 = 1.69e6; Kc cell number, rep 2 = 1.77e6; S2R+ cell number, rep 1 = 1.21e6; S2R+ cell number, rep 2 = 1.28e6.
After knock-down of Hasp [SID104181814], the screen gave Kc cell number, rep 1 = 1.42e6; Kc cell number, rep 2 = 1.49e6; S2R+ cell number, rep 1 = 1.32e6; S2R+ cell number, rep 2 = 1.37e6.
Faf2 [SID104183117] scored Kc cell number, rep 1 = 1.23e6; Kc cell number, rep 2 = 1.47e6; S2R+ cell number, rep 1 = 1.23e6; S2R+ cell number, rep 2 = 1.20e6.
For eIF3j [SID104185899] the deposit lists Kc cell number, rep 1 = 1.57e6; Kc cell number, rep 2 = 1.64e6; S2R+ cell number, rep 1 = 1.14e6; S2R+ cell number, rep 2 = 1.06e6.
PGRP-LC [SID104188772] showed Kc cell number, rep 1 = 1.46e6; Kc cell number, rep 2 = 1.50e6; S2R+ cell number, rep 1 = 1.17e6; S2R+ cell number, rep 2 = 1.34e6.
PGRP-LC [SID104190208] gave Kc cell number, rep 1 = 1.59e6; Kc cell number, rep 2 = 1.71e6; S2R+ cell number, rep 1 = 1.28e6; S2R+ cell number, rep 2 = 1.44e6.
Knock-down of PGRP-LC [SID104190209] came out at: Kc cell number, rep 1 = 1.65e6; Kc cell number, rep 2 = 1.59e6; S2R+ cell number, rep 1 = 1.17e6; S2R+ cell number, rep 2 = 1.46e6.
